# Results published in PMC7106964.
# Results are given in words; binding and its absence hold for the method and conditions named. Binding seen in cells or lysates may run through a third protein. Some entries that bind do so weakly or less than the wild type.
# What was measured:
# Flag‐Tip60 (human) = Flag‐Tip60 (human) (UniProt Q92993); test: proximity ligation; U2OS cells transfected 48 h with the indicated plasmids, fixed, Duolink in situ PLA with probes against HA and Flag; in Figure 6E with overexpressed RNF8
# [1] = target: Tip60 (construct not named for the co-IP) (human) (UniProt Q92993); test: co-IP; HEK-293T whole cell lysates in RIPA buffer, antibody 3 h at 4°C, then protein A/G Sepharose 3 h, immunoblot; cells with or without Eto or CPT; in Figure 6D with or without overexpressed RNF8
binding (Flag‐Tip60 (human)),binding [1],Substance
binds,–,HA‐p53 (from UniProt P04637 1-393)
–,binds,p53 (construct not named for the co-IP) (from UniProt P04637 1-393)
